Assay results as given in the supplement of paper PMC6078165.
± gives the standard deviation of the averaged measurements. The reference is the same well before dosing, and untreated signal decays as well.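 Labels refer to human fibroblasts, largely primary: uterine (C12385, HUF), lung (H6013), bone (Hs27A), adrenal (HADF), skin (WS1), plus mammary HMF and breast cancer-associated Hs343T. Cancer lines are basal-like or mesenchymal-like triple-negative breast cancer. The paper counts as hits responses shifting over 3x the replicate standard deviation. The tissue of the other fibroblasts is not given here.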 Numbered stars: 1 amine (or outer) side, 2 acyl side, 3 side chain; on linkers, the order of the positions; unused ones are H or OH. Bridge positions count the residues as written; N and C are the ends. Square brackets hold non-standard residues; d marks the D form. Peptide text beside a SMILES is read from it. I, II: the chains in the order shown. Actinocin(9to1) = Cc1c2oc3c(C)ccc(C(=O)[*:1])c3nc-2c(C(=O)[*:2])c(N)c1=O; NMeV = CN[C@H](C(=O)O)C(C)C; Sar = CNCC(=O)O

Test system: MDAMB436
Assay: relative JC-1 red fluorescence (viability) vs pre-drug, coculture with fibroblast (fraction); higher = more viable cancer cells
Conditions: 100 µM
Protocol: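 JC-1 labelled TNBC cells cocultured 1:1 (1,500 cells each) with CellTrace Violet stained primary or stromal fibroblasts in 384-well plates in FluoroBrite medium, treated with one of 42 anticancer drugs at 0.1, 1, 10 or 100 uM. JC-1 red fluorescence (mitochondrial integrity in cancer cells only) was read by plate reader every 8 h for 72 h. Values are normalised to each well's pre-drug value. The stock of one drug was tenfold lower, so its dose labels may be too high.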

Cc1c2oc3c(C)ccc(C(=O)N[C@@H]4C(=O)N[C@H](C(C)C)C(=O)N5CCC[C@H]5C(=O)N(C)CC(=O)N(C)[C@@H](C(C)C)C(=O)O[C@@H]4C)c3nc-2c(C(=O)N[C@@H]2C(=O)N[C@H](C(C)C)C(=O)N3CCC[C@H]3C(=O)N(C)CC(=O)N(C)[C@@H](C(C)C)C(=O)O[C@@H]2C)c(N)c1=O [Dactinomycin] (I: T[dV]P[Sar][NMeV] / II: T[dV]P[Sar][NMeV]; ester I:1-I:C, II:1-II:C; linker I:N-II:N via Actinocin(9to1))
relative JC-1 red fluorescence
Conditions | 8 h | 16 h | 24 h | 32 h | 40 h | 48 h | 56 h | 64 h | 72 h
coculture fibroblast: C12385 | 0.73 ± 0.032 | 0.689 ± 0.013 | 0.675 ± 0.018 | 0.611 ± 0.012 | 0.5905 ± 0.0038 | 0.58759 ± 0.00043 | 0.577 ± 0.0076 | 0.56728 ± 0.00025 | 0.5694 ± 0.0033
coculture fibroblast: H6013 | 0.807 ± 0.033 | 0.778 ± 0.051 | 0.779 ± 0.051 | 0.776 ± 0.054 | 0.766 ± 0.047 | 0.801 ± 0.04 | 0.764 ± 0.043 | 0.756 ± 0.039 | 0.711 ± 0.03
coculture fibroblast: H6019 | 0.7257 ± 0.0066 | 0.689 ± 0.0076 | 0.7046 ± 0.0049 | 0.66455 ± 0.0004 | 0.6636 ± 0.0011 | 0.6579 ± 0.0051 | 0.633 ± 0.011 | 0.62787 ± 3.4e-05 | 0.6228 ± 0.0019
coculture fibroblast: H6076 | 0.708 ± 0.11 | 0.674 ± 0.1 | 0.704 ± 0.11 | 0.668 ± 0.1 | 0.651 ± 0.098 | 0.635 ± 0.1 | 0.644 ± 0.11 | 0.634 ± 0.097 | 0.621 ± 0.11
coculture fibroblast: H6231 | 0.729 ± 0.022 | 0.67 ± 0.069 | 0.724 ± 0.049 | 0.645 ± 0.055 | 0.611 ± 0.043 | 0.583 ± 0.037 | 0.579 ± 0.034 | 0.555 ± 0.033 | 0.545 ± 0.038
coculture fibroblast: HADF | 0.734 ± 0.036 | 0.72 ± 0.034 | 0.708 ± 0.025 | 0.69 ± 0.024 | 0.674 ± 0.018 | 0.706 ± 0.03 | 0.646 ± 0.03 | 0.649 ± 0.036 | 0.61 ± 0.046
coculture fibroblast: HCFa | 0.8 ± 0.021 | 0.793 ± 0.0084 | 0.7879 ± 0.0044 | 0.791 ± 0.0095 | 0.7758 ± 0.002 | 0.81 ± 0.0084 | 0.759 ± 0.022 | 0.766 ± 0.025 | 0.725 ± 0.017
coculture fibroblast: HCPF | 0.728 ± 0.081 | 0.708 ± 0.093 | 0.722 ± 0.11 | 0.655 ± 0.12 | 0.636 ± 0.11 | 0.605 ± 0.12 | 0.583 ± 0.12 | 0.574 ± 0.13 | 0.556 ± 0.14
coculture fibroblast: HHSteC | 0.781 ± 0.0082 | 0.7782 ± 0.0038 | 0.768 ± 0.021 | 0.769 ± 0.036 | 0.773 ± 0.04 | 0.805 ± 0.054 | 0.749 ± 0.064 | 0.734 ± 0.061 | 0.694 ± 0.056
coculture fibroblast: HMF | 0.753 ± 0.034 | 0.727 ± 0.024 | 0.745 ± 0.034 | 0.715 ± 0.039 | 0.718 ± 0.027 | 0.697 ± 0.03 | 0.692 ± 0.038 | 0.673 ± 0.039 | 0.666 ± 0.054
coculture fibroblast: HPFa | 0.872 ± 0.017 | 0.872 ± 0.034 | 0.877 ± 0.053 | 0.859 ± 0.077 | 0.883 ± 0.085 | 0.919 ± 0.11 | 0.867 ± 0.1 | 0.87 ± 0.12 | 0.835 ± 0.12
coculture fibroblast: HUF | 0.796 ± 0.0098 | 0.7487 ± 0.0042 | 0.744 ± 0.009 | 0.689 ± 0.01 | 0.651 ± 0.011 | 0.638 ± 0.014 | 0.614 ± 0.017 | 0.609 ± 0.0079 | 0.60841 ± 0.00021
coculture fibroblast: Hs5 | 0.753 ± 0.048 | 0.729 ± 0.067 | 0.73 ± 0.09 | 0.677 ± 0.1 | 0.667 ± 0.091 | 0.628 ± 0.085 | 0.636 ± 0.1 | 0.605 ± 0.091 | 0.605 ± 0.11
coculture fibroblast: Hs27A | 0.7558 ± 0.0057 | 0.727 ± 0.041 | 0.72 ± 0.036 | 0.719 ± 0.037 | 0.709 ± 0.035 | 0.781 ± 0.038 | 0.693 ± 0.034 | 0.686 ± 0.04 | 0.622 ± 0.044
coculture fibroblast: Hs343T | 0.7954 ± 0.0063 | 0.76 ± 0.0081 | 0.738 ± 0.0083 | 0.6974 ± 0.0039 | 0.687 ± 0.0095 | 0.65 ± 0.02 | 0.644 ± 0.038 | 0.629 ± 0.048 | 0.624 ± 0.072
coculture fibroblast: WS1 | 0.72 ± 0.033 | 0.676 ± 0.0073 | 0.67 ± 0.012 | 0.605 ± 0.024 | 0.584 ± 0.031 | 0.572 ± 0.024 | 0.564 ± 0.043 | 0.551 ± 0.046 | 0.545 ± 0.052
